The values that follow come from US20130337579.

Protein sequences, listed by entry. Tags and fused reporters are not part of them. Lines headed by an entry give the natural chain unless they say otherwise; changes in a name come on top. Residues count along the entry.
UniProt P0ACJ8, 2-210: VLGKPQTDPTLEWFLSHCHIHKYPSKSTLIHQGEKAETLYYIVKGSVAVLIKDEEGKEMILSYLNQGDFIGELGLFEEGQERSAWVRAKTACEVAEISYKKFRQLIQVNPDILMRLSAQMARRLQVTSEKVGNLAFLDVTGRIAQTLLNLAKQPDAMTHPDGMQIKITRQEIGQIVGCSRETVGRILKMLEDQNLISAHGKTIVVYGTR
UniProt P22629: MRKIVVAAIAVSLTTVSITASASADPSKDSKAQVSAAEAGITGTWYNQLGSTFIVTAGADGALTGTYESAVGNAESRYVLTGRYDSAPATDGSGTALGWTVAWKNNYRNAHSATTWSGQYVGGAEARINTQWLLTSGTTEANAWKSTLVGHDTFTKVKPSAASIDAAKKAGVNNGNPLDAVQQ

Data set [1] has as its target CRP (cited studies) (Escherichia coli) (UniProt P0ACJ8). As to the kind of experiment: FP. Particulars: label: 32P.
For data set [2] the target is unchanged. As to the kind of experiment: filter binding. As to conditions: CITED Gunasekera 1992, label: 32P.
The next data set concerns the target Streptavidin (UniProt P22629). As to the kind of experiment: binding assay. Particulars: DRaCALA; no biotin; purified native protein; protein details: Sigma Aldrich; label: 5'-32P; only the site is given.
The target of data set [3] is CRP (catabolite activator protein, cAMP receptor protein) (Escherichia coli) (UniProt P0ACJ8). The data set is described as follows: binding assay. As to conditions: DRaCALA; very low binding; 100 nM CRP, 4 nM probe, 200 uM cAMP; purified recombinant protein; label: 5'-32P; variant of ICAP oligo duplex (gd126/gd127).

For part of these data: No signal at the amounts used counts as a negative. For part of these data: The comparison behind a weaker result is the experiment's own reference, which may not be listed here. For part of these data: The exact form of at least one protein or probe is not confirmed.

As for “AATAAATGTGATCTAGATCACATTTTAG (double strand) [ICAP oligo (Gunasekera 1992)]”, the results for the Kd in data set [1] and in data set [2] (no cAMP) were 0.7 nM and over 100 nM, respectively. Take “AATAAATGTGATCTAGATCACATTTTAG (double strand) [ICAP PCR probe ~600 bp, no biotin (ICAP insert given)]”: the binding result with Streptavidin is “no binding”. With “AATAAATCTCATCTAGATGAGATTTTAG (double strand) [8,10:G-C PCR probe ~600 bp, no biotin (insert unit given)]”, in the data set with Streptavidin, the binding result was “no binding”. “AATAAATGTCATCTAGATGACATTTTAG (double strand) [10:G-C oligo (Gunasekera 1992)]” displayed a Kd in data set [2] (200 uM cAMP, variant of ICAP oligo (Gunasekera 1992)) of over 100 nM. As for “AGGAGGAATAAATCTGATCTAGATCAGATTTTAGAGGAGG (double strand) [8:G-C oligo duplex (gd128/gd129)]”, the binding result in data set [3] is recorded as “binds more weakly”.
